These are yes or no findings as the source states them, for the method shown. Binding seen in cells or lysates may run through a third protein. These calls come from enrichment with a bait or labelling near it, and not all partners need be listed.
Target: Flag-tagged USP16 (ubiquitin carboxyl-terminal hydrolase 16) (human) (UniProt Q9Y5T5)
Test: affinity purification with mass spectrometry; HEK293T cells transfected with Flag-USP16; immunoprecipitation by Flag antibody or IgG with protein A/G beads; silver staining; LC-MS/MS

By UniProt entry, the sequences of proteins in these tests, tags left out.
UniProt Q9Y5T5: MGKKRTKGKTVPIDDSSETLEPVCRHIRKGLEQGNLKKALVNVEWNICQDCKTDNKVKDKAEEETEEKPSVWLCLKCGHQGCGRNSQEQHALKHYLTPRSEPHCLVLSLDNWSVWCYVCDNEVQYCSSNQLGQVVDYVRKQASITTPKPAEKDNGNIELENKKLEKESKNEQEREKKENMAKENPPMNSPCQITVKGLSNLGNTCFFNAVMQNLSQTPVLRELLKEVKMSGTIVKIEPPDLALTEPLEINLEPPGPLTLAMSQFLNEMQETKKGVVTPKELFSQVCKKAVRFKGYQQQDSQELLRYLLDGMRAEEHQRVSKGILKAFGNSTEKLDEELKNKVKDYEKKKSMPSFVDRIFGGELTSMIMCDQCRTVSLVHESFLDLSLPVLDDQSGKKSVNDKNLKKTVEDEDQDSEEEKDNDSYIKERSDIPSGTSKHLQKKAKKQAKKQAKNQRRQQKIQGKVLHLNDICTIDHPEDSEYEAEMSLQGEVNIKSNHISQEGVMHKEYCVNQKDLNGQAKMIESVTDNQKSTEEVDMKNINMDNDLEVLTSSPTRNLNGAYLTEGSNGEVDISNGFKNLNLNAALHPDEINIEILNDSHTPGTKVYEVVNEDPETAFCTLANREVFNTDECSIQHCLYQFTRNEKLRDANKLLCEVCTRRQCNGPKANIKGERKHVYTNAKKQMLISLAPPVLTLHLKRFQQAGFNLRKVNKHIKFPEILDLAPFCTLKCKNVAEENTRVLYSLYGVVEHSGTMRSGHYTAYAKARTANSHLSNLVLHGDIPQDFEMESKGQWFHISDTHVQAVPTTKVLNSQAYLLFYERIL
UniProt Q14145: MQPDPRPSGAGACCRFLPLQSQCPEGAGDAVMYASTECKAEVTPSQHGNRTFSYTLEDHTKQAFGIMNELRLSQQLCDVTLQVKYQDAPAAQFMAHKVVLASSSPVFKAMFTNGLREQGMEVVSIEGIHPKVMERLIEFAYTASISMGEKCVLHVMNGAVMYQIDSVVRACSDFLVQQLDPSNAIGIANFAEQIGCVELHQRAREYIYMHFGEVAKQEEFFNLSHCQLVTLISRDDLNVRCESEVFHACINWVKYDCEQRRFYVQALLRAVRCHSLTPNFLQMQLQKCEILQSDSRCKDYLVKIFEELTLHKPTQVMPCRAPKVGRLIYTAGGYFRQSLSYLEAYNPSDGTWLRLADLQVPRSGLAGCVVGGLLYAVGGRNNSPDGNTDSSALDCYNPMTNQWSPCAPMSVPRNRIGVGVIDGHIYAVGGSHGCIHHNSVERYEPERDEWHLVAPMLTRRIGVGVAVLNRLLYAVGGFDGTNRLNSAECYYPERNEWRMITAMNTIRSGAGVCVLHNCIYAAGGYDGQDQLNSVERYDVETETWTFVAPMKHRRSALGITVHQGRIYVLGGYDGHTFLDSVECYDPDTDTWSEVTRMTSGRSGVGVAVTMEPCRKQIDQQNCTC

binding: binds
Substance: KEAP1 (Kelch Like ECH Associated Protein 1), endogenous in HEK293T cells (from UniProt Q14145 1-624)
